# Measured values: patent publication US11857648B2, “Dimerization strategies and compounds for molecular imaging and/or radioimmunotherapy” (UNIVERSITY OF PITTSBURGH—OF THE COMMONWEALTH SYSTEM OF …, priority 2016, dated 2024)
# At least one peptide structure holds a part that was inferred or is arguable (an end, a ring closure or a residue).
# Legend:
# [1] = system: U87MG human cancer cells; test: Cell saturation binding assay; conditions: 2 h on ice (4° C.), 1-100 nM
# [2] = system: U87MG tumor xenografts; test: PET/CT imaging of U87MG tumor xenografts; format: in vivo, NCr nude mice; conditions: PET quantitation
compound,measurement,setting,value
"N=C(N)NCCC[C@@H]1NC(=O)[C@H](CCCCNC(=O)CCC(C(=O)O)N2CCN(CC(=O)O)CCN(CC(=O)O)CC2)NC(=O)[C@@H](Cc2ccc(O)cc2)NC(=O)[C@H](CC(=O)O)NC(=O)CNC1=O (stereo partly shown) [^64Cu-RGD, metal not drawn]",Bmax,[1],260 ± 44 fmol/mg
same,Kd,[1]; read-out: binding affinity (Kd),91 ± 36 nM
same,tumor uptake,[2]; 1 h p.i.,1.50±0.42 % ID/g
same,tumor uptake,[2]; 4 h p.i.,1.73±0.51 % ID/g
